{"source": "patent US20110118116A1", "about": "“Azolin-2-ylamino Compounds for Combating Animal Pests” (priority 2008, published 2011)", "note": "Some of these results come from one statement about several compounds together.", "data": [{"system": "Cotton Aphid (Aphis gossypii)", "assay": "Cotton aphid test, cotyledons of infested cotton plants dipped", "type": "in vivo", "conditions": "300 ppm, dip, aphid mortality determined after 5 days", "description": "I. Cotton Aphid (Aphis gossypii)\n(§1) The active compounds were formulated in 50:50 acetone: water and 100 ppm Kinetic® surfactant.\n(§2) Cotton plants in the cotyledon stage (variety ‘Delta Pine’) are infested with approximately 100 laboratory-reared aphids by placing infested leaf sections on top of the test plants. The leaf sections are removed after 24 hours. The cotyledons of the intact plants are dipped into gradient solutions of the test compound. Aphid mortality on the treated plants, relative to mortality on check plants, is determined after 5 days.", "values": [{"smiles": "CC(=O)OCCNC(=S)NC(CC#Cc1cc(C)cc(C)c1)c1cccc(C)c1C", "note": "(centres unmarked) [Example 8]", "mortality in comparison with untreated controls": "over 70%"}, {"smiles": "Cc1cc(C)cc(C#CCC(NC2=NCCS2)c2cccc(C)c2C)c1", "note": "(centres unmarked) [Example 20]", "mortality in comparison with untreated controls": "over 70%"}, {"smiles": "CC(=O)OCCNC(=S)NC(CC#Cc1ccccc1C)c1cccc(C)c1C", "note": "(centres unmarked) [Example 5]", "mortality in comparison with untreated controls": "over 70%"}, {"smiles": "Cc1ccccc1C#CCC(NC1=NCCS1)c1cccc(C)c1C", "note": "(centres unmarked) [Example 18]", "mortality in comparison with untreated controls": "over 70%"}, {"smiles": "Cc1cccc(C(CC#Cc2ccc(Cl)cc2)NC2=NCCS2)c1C", "note": "(centres unmarked) [Example 16]", "mortality in comparison with untreated controls": "over 70%"}, {"smiles": "Cc1ccccc1C#CCC(NC(=S)NCCO)c1cccc(C)c1C", "note": "(centres unmarked) [Example 6]", "mortality in comparison with untreated controls": "over 70%"}, {"smiles": "Cc1cccc(C(CC#Cc2ccccc2)NC2=NCCS2)c1C", "note": "(centres unmarked) [Example 17]", "mortality in comparison with untreated controls": "over 70%"}, {"smiles": "Cc1ccc(C#CCC(NC2=NCCS2)c2cccc(C)c2C)cc1", "note": "(centres unmarked) [Example 19]", "mortality in comparison with untreated controls": "over 70%"}]}, {"system": "Green Peach Aphid (Myzus persicae)", "assay": "Green peach aphid test, leaves of infested pepper plants dipped", "type": "in vivo", "conditions": "300 ppm, dip, aphid mortality determined after 5 days", "description": "II. Green Peach Aphid (Myzus persicae)\nas §1\nas §2, with “Pepper” for “Cotton”, “2nd leaf-pair” for “cotyledon”, “‘California Wonder’)” for “‘Delta Pine’)”, “40” for “100”, “leaves” for “cotyledons”", "values": [{"smiles": "CC(=O)OCCNC(=S)NC(CC#Cc1ccc(C)cc1)c1cccc(C)c1C", "note": "(centres unmarked) [Example 7]", "mortality in comparison with untreated controls": "over 70%"}, {"smiles": "Cc1cc(C)cc(C#CCC(NC2=NCCS2)c2cccc(C)c2C)c1", "note": "(centres unmarked) [Example 20]", "mortality in comparison with untreated controls": "over 70%"}, {"smiles": "CC(=O)OCCNC(=S)NC(CC#Cc1ccccc1C)c1cccc(C)c1C", "note": "(centres unmarked) [Example 5]", "mortality in comparison with untreated controls": "over 70%"}, {"smiles": "Cc1ccccc1C#CCC(NC1=NCCS1)c1cccc(C)c1C", "note": "(centres unmarked) [Example 18]", "mortality in comparison with untreated controls": "over 70%"}, {"smiles": "Cc1cccc(C(CC#Cc2ccc(Cl)cc2)NC2=NCCS2)c1C", "note": "(centres unmarked) [Example 16]", "mortality in comparison with untreated controls": "over 70%"}, {"smiles": "COc1cccc(C#CCC(NC(=S)NCCOC(C)=O)c2cccc(C)c2C)c1", "note": "(centres unmarked) [Example 11]", "mortality in comparison with untreated controls": "over 70%"}, {"smiles": "Cc1ccccc1C#CCC(NC(=S)NCCO)c1cccc(C)c1C", "note": "(centres unmarked) [Example 6]", "mortality in comparison with untreated controls": "over 70%"}, {"smiles": "Cc1cccc(C(CC#Cc2ccccc2)NC2=NCCS2)c1C", "note": "(centres unmarked) [Example 17]", "mortality in comparison with untreated controls": "over 70%"}, {"smiles": "Cc1ccc(C#CCC(NC2=NCCS2)c2cccc(C)c2C)cc1", "note": "(centres unmarked) [Example 19]", "mortality in comparison with untreated controls": "over 70%"}, {"smiles": "Cc1cccc(C(CC#Cc2ccccc2)NC(=S)NCCO)c1C", "note": "(centres unmarked) [Example 4]", "mortality in comparison with untreated controls": "over 70%"}]}, {"system": "Cowpea Aphid (Aphis craccivora)", "assay": "Cowpea aphid test, colonized potted cowpea plants sprayed", "type": "in vivo", "conditions": "300 ppm, spray, population reduction recorded after 24, 72 and 120 hours", "description": "III. Cowpea Aphid (Aphis craccivora)\nas §1\nPotted cowpea plants colonized with 100-150 aphids of various stages were sprayed after the pest population has been recorded. Population reduction was recorded after 24, 72, and 120 hours.", "values": [{"smiles": "Cc1cc(C)cc(C#CCC(NC2=NCCS2)c2cccc(C)c2C)c1", "note": "(centres unmarked) [Example 20]", "mortality in comparison with untreated controls": "over 70%"}, {"smiles": "CC(=O)OCCNC(=S)NC(CC#Cc1ccccc1C)c1cccc(C)c1C", "note": "(centres unmarked) [Example 5]", "mortality in comparison with untreated controls": "over 70%"}, {"smiles": "Cc1ccccc1C#CCC(NC1=NCCS1)c1cccc(C)c1C", "note": "(centres unmarked) [Example 18]", "mortality in comparison with untreated controls": "over 70%"}, {"smiles": "Cc1cccc(C(CC#Cc2ccc(Cl)cc2)NC2=NCCS2)c1C", "note": "(centres unmarked) [Example 16]", "mortality in comparison with untreated controls": "over 70%"}, {"smiles": "Cc1ccccc1C#CCC(NC(=S)NCCO)c1cccc(C)c1C", "note": "(centres unmarked) [Example 6]", "mortality in comparison with untreated controls": "over 70%"}, {"smiles": "Cc1cccc(C(CC#Cc2ccccc2)NC2=NCCS2)c1C", "note": "(centres unmarked) [Example 17]", "mortality in comparison with untreated controls": "over 70%"}, {"smiles": "Cc1ccc(C#CCC(NC2=NCCS2)c2cccc(C)c2C)cc1", "note": "(centres unmarked) [Example 19]", "mortality in comparison with untreated controls": "over 70%"}, {"smiles": "COc1cccc(C#CCC(NC(=S)NCCO)c2cccc(C)c2C)c1", "note": "(centres unmarked) [Example 12]", "mortality in comparison with untreated controls": "over 70%"}]}]}
